Results are given in words; binding and its absence hold for the method and conditions named.
Tests used:
[1] = molecular target: human CD16B (NA1) on NK92mi cells (human) (UniProt O75015); test: FACS, NK92mi/CD16B (NA1) cells, Alexa Fluor 647 anti-human IgG Fc
[2] = molecular target: human CD16B-His6 (NA2) (human) (UniProt O75015); test: condition: one concentration (paragraph 202 prints 1 mg/ml); antigen ELISA, coated Human CD16B (NA2), HRP anti-human IgG
[3] = molecular target: human CD16B (NA2) on NK92mi cells (human) (UniProt O75015); test: FACS, NK92mi/CD16B (NA2) cells, Alexa Fluor 647 anti-human IgG Fc
[4] = molecular target: human CD16B-His6 (NA1) (human) (UniProt O75015); test: condition: one concentration (paragraph 202 prints 1 mg/ml); antigen ELISA, coated Human CD16B (NA1), HRP anti-human IgG

Protein sequences, listed by entry. Tags and fused reporters are not part of them. Lines headed by an entry give the natural chain unless they say otherwise; changes in a name come on top.
UniProt O75015: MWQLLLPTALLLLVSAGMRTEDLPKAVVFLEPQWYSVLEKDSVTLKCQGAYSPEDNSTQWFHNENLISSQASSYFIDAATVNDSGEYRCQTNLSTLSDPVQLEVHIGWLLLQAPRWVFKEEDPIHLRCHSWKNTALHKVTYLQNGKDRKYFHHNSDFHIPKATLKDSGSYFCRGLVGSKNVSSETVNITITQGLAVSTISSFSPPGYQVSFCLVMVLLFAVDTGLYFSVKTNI

binding [1]: no binding (tested: 50 ug/ml) | binding [2]: no binding | binding [3]: no binding (tested: 50 ug/ml) | binding [4]: no binding
B1: LS21 (scFv)
scFv: EVQLVQSGAEVKKPGESLKVSCKASGYTFTSYYMHWVRQAPGQGLEWMGIINPSGGSTSYAQKFQGRVTMTRDTSTSTVYMELSSLRSEDTAVYYCARGSAYYYDFADYWGQGTLVTVSSGGGGSGGGGSGGGGSQPVLTQPSSVSVAPGQTATISCGGHNIGSKNVHWYQQRPGQSPVLVIYQDNKRPSGIPERFSGSNSGNTATLTISGTQAMDEADYYCQVWDNYSVLFGGGTKLTVL

Reference: patent US20250075002A1
